Data as given in PubChem BioAssay AID504764 (Drosophila RNAi Screening Center, 2011)
Assay: 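Genome-wide screen for regulators of Notch-driven gene expression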 (primary screen). Cell system: Drosophila Kc167 cells. Reagent: long dsRNA against Drosophila genes. Time to read-out: about 5 days (4 days dsRNA, then 24 h after transfection). Conditions: transfection of constitutively active membrane-tethered Notch lacking the extracellular domain, read 24 h later. Read-out: 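Light from a Notch-responsive E(spl)m3 luciferase reporter under active Notch, with control-promoter and no-Notch reporter wells to normalise; raw counts from paired wells a and b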. Reading the numbers: induced reporter light, run 1, well a and induced reporter light, run 1, well b: higher = more light from the Notch target reporter with active Notch; control promoter light, run 1, well a and control promoter light, run 1, well b: higher = more light from the viral control promoter (cell number, transfection, viability); uninduced reporter light, run 1, well a: higher = more light from the Notch target reporter without active Notch. Hit rule: 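Wells with low control signal or poorly matching duplicates excluded; duplicates averaged; per source plate, z beyond ±2 for induced/control log2 ratio or beyond ±1.8 for induced/uninduced marks a hit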. Calls: active = modifier hit (raised or lowered Notch signal); inactive = not a hit.
In all, the deposit lists about 22,000 reagents; below is a random part of those with a known target gene and a result. Over the whole deposit, 403 (1.9%) were called active. 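Unnormalised raw counts per well; ratio z-scores behind the hit calls and whether each hit raises or lowers signal are not deposited.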 Unmarked entries are inactive. The numbers tell different reagents against one gene apart. The record does not give: the amount of reagent.

target gene	reagent	induced reporter light, run 1, well a	induced reporter light, run 1, well b	control promoter light, run 1, well a	control promoter light, run 1, well b	uninduced reporter light, run 1, well a
asl (asterless)	1	1.61e5	1.55e5	1.40e5	1.49e5	13150
Ube4A (Ubiquitination factor E4A)	1	2.38e5	2.38e5	1.90e5	2.19e5	17755
CG6656	1	1.88e5	1.65e5	2.53e5	2.16e5	16740
Mon1 (Monensin sensitivity 1)	1	1.71e5	1.54e5	1.31e5	1.17e5	7710
cold (coiled)	1	1.83e5	2.01e5	2.17e5	2.31e5	17445
Abcd1 (ATP binding cassette subfamily D member 1)	1	2.34e5	1.84e5	3.26e5	2.85e5	15995
Tom20 (Translocase of outer membrane 20)	1	1.14e5	1.58e5	90190	95440	10645
CG10555	1	64755	76215	1.28e5	1.28e5	8865
Pex5 (Peroxin 5)	1	99015	1.18e5	1.87e5	2.04e5	9160
Tsen2 (tRNA splicing endonuclease subunit 2)	1	51760	48560	75015	55610	5070
Elp4 (Elongator complex protein 4)	1	2.92e5	2.16e5	53400	41805	15480
gcm (glial cells missing)	1	1.22e5	1.60e5	82240	1.03e5	19490
CG31467	1	1.02e5	81885	1.06e5	70690	7455
CG31008	1	64670	96245	1.01e5	1.16e5	7110
IFT46 (Intraflagellar transport 46)	1	67810	53005	72080	76990	4635
l(3)80Fj (lethal (3) 80Fj)	1	1.89e5	1.62e5	3.56e5	2.61e5	17180
l(3)80Fj (lethal (3) 80Fj)	2	75925	1.08e5	89655	1.02e5	10065
Gem2 (Gemin 2)	1	1.10e5	1.17e5	69175	74400	8325
CG14877	1	1.62e5	1.82e5	1.60e5	1.42e5	12630
lky (leaky)	1	1.01e5	1.06e5	88775	1.09e5	9405
CG7065	1	1.37e5	1.09e5	1.50e5	1.51e5	15210
ppk (pickpocket)	1	1.48e5	1.38e5	1.40e5	1.35e5	11220
CG9664	1	1.64e5	2.16e5	2.10e5	1.71e5	17760
CG12506	1	99685	1.61e5	1.51e5	96155	8490
pk (prickle)	1	2.10e5 (active)	1.94e5	2.79e5	2.67e5	25130
pk (prickle)	2	2.03e5	2.54e5	3.01e5	2.53e5	19210
ACXB (Adenylyl cyclase X B)	1	1.31e5	1.58e5	1.46e5	1.45e5	10815
CG5112	1	2.12e5	2.00e5	2.89e5	2.76e5	14292
CG17570	1	86730	69810	63830	98335	9545
CG17570	2	49305	48335	51085	65935	2725
qsm (quasimodo)	1	1.07e5	1.30e5	1.57e5	1.48e5	8415
qsm (quasimodo)	2	1.38e5	1.71e5	2.23e5	2.62e5	9180
CG30458	1	92035	80385	84670	1.10e5	7935
CG11694	1	1.36e5	1.11e5	1.60e5	1.03e5	7410
heca (headcase)	1	30640	28685	31005	30580	5345
CG17163	1	79270	91585	94505	1.01e5	9870
Cpsf100 (Cleavage and polyadenylation specificity factor 100)	1	2.09e5	1.73e5	2.19e5	2.29e5	12030
krimp (krimper)	1	1.04e5	1.12e5	1.83e5	2.23e5	8975
CG11373	1	1.16e5	1.17e5	1.01e5	80940	7455
CG34057	1	1.40e5	1.54e5	2.82e5	2.66e5	7715
CG17300	1	2.01e5	1.73e5	1.91e5	1.51e5	10885
pira (pirate)	1	82715	91335	1.29e5	1.18e5	5590
CG32054	1	1.97e5	1.50e5	1.85e5	1.88e5	9825
CG46301	1	1.12e5	1.15e5	99745	1.33e5	10235
fkh (fork head)	1	1.46e5	1.34e5	1.92e5	1.64e5	11000
Hsp60C (Heat shock protein 60C)	1	2.37e5	1.73e5	2.26e5	1.98e5	12015
CG8478	1	1.39e5	1.11e5	1.56e5	1.09e5	10335
CG13579	1	2.70e5	2.25e5	1.87e5	1.84e5	17200
CG8617	1	97545	1.24e5	1.36e5	1.23e5	10185
MED31 (Mediator complex subunit 31)	1	55280	59935	27840	23595	6088
CG6574	1	35185	37225	42175	29130	1980
lectin-21Cb	1	1.24e5	1.04e5	79755	40275	8055
CG6628	1	2.16e5	1.57e5	2.40e5	2.49e5	10010
CG3558	1	1.64e5	1.69e5	1.49e5	1.68e5	14725
Galphai (G protein alpha subunit i)	1	1.06e5	81895	77070	15795	10470
CG8149	1	88180	88190	92880	64275	4540
TwdlV (TweedleV)	1	67535	54390	61560	61080	6335
Jon99Ciii (Jonah 99Ciii)	1	1.28e5	99680	1.58e5	1.44e5	8540
nebu (nebulosa)	1	1.94e5 (active)	1.78e5	1.10e5	87365	12510
nebu (nebulosa)	2	2.18e5 (active)	1.75e5	1.94e5	1.65e5	5185
Abd-B (Abdominal B)	1	2.87e5	2.04e5	2.20e5	2.31e5	16350
Abd-B (Abdominal B)	2	1.69e5	1.99e5	2.25e5	2.33e5	14570
Ndfip (Nedd4 family interacting protein)	1	1.37e5	1.27e5	1.03e5	97185	9705
BNIP3	1	1.62e5	1.39e5	1.20e5	1.36e5	8255
